No constants are given. Whether binding was seen depends on the method and setting. Some entries that bind do so weakly or less than the wild type.
Tests used:
Experiment in all cases: peptide or protein array
[1] = target: T1, PRDM2 (amino acids 948–970) peptide (UniProt Q13029)
T1 sequence (peptide): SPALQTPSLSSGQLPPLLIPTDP

Protein sequences, listed by entry. Tags and fused reporters are not part of them. Residues count along the entry.
UniProt Q9Y618, residues 649-671: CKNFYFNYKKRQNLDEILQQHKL
UniProt P03372: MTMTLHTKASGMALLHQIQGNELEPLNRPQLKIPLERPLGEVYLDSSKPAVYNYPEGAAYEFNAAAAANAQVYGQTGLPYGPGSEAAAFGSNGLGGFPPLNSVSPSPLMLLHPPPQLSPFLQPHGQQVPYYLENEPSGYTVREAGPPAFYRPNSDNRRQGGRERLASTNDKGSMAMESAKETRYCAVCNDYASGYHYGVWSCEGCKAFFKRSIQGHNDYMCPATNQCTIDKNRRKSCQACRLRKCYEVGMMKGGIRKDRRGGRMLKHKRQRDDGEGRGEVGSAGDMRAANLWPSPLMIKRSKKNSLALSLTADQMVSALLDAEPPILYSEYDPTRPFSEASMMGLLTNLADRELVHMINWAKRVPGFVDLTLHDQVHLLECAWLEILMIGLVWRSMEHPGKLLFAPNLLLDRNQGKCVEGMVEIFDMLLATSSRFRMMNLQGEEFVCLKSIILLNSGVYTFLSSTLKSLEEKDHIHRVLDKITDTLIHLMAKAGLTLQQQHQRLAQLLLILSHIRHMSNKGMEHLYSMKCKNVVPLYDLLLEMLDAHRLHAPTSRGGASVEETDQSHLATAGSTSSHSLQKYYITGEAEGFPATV

[2] = target: T2, NRIP1 (amino acids 805–831) peptide (UniProt P48552)
T2 sequence (peptide): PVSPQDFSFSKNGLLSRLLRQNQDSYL

[3] = target: NCOR2 peptide (amino acids 649-671) (UniProt Q9Y618)

binding [1]: binds
binding [2]: binds
binding [3]: binds
Substance: full length HA-tagged WT ERa (from UniProt P03372 1-595) (receptor)
